Our source for the binding values is paper PMC10242005.

By UniProt entry, the sequences of proteins in these tests, tags left out.
UniProt Q16659: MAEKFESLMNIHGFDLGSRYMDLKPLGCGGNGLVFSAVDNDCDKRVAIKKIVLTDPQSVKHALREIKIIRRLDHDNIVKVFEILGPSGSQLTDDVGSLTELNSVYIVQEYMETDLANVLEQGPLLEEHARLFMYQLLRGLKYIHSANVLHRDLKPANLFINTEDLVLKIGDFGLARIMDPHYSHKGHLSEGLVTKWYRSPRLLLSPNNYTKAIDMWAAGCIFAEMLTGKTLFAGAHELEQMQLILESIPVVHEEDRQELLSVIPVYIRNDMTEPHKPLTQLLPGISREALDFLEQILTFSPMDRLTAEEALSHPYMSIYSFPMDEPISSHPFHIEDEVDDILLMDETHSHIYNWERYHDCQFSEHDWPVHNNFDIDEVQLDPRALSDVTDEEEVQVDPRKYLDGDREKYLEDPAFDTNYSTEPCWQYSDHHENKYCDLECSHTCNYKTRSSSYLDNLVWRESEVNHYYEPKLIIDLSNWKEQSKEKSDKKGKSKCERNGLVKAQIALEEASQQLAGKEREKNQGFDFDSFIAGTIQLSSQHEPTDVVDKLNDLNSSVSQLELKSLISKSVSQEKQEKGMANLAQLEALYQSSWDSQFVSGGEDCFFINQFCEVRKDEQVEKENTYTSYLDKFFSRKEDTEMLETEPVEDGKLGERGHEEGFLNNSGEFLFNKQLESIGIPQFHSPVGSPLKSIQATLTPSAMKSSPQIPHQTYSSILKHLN
UniProt Q13574: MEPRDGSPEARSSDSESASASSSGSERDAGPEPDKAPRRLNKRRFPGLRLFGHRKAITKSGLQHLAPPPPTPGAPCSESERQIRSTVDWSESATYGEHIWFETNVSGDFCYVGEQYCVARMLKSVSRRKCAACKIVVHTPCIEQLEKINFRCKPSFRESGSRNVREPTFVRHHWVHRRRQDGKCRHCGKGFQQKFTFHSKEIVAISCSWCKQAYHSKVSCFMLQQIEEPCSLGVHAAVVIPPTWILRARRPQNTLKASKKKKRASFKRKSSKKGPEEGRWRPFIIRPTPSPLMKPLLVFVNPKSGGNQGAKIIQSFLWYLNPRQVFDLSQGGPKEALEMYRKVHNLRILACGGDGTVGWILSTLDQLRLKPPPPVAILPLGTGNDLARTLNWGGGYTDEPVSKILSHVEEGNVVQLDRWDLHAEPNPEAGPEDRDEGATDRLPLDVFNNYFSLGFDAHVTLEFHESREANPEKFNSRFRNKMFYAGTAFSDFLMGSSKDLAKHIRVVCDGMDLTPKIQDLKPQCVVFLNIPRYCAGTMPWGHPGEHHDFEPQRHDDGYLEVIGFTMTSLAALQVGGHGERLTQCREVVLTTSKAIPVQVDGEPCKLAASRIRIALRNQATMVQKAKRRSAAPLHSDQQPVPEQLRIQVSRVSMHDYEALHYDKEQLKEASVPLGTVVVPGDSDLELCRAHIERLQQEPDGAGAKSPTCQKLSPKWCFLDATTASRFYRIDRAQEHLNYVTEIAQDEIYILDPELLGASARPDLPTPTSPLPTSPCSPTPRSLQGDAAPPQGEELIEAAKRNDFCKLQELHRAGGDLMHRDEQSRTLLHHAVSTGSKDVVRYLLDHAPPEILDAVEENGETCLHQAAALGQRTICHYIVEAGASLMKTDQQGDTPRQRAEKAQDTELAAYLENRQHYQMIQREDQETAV

No constants are given. Whether binding was seen depends on the method and setting. For some assays here: Binding seen in cells or lysates may run through a third protein. Some binding calls cover weakened binding; strength is not graded here.

Test [1] concerns the target His6-ERK3-GST (WT, full length) (UniProt Q16659). As to the kind of experiment: co-IP; in vitro binding assay: 150 ng purified DGKζ with or without 200 ng purified ERK3 in EBC buffer, 1 h at 4°C, then ERK3 antibody on protein A beads; blot; both purified.
The target of test [2] is endogenous ERK3 (NCI-H460 cells) (human (endogenous in NCI-H460)) (UniProt Q16659). As to the kind of experiment: co-IP; endogenous proteins in NCI-H460 lysate; ERK3 precipitated with anti-ERK3 antibody, rabbit IgG control; blot for DGKζ.

In the case of “GST-DGKζ (purchased) (from UniProt Q13574 1-928)”, the binding entry in test [1] was “binds”.

In the case of “endogenous DGKζ (NCI-H460 cells) (from UniProt Q13574 1-928)”, the binding entry in test [2] is listed as “binds”.
